Data as given in PubChem BioAssay AID1259425 (University of Nebraska Medical Center, 2018)
In all, the deposit lists about 14,000 reagents; below is an unselected part. Further read-outs or replicates are left out here. No sequences are given here. Not stated in the record: the time to read-out.

Aim: 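Seek colon cancer weak points whose silencing resembles KSR1 loss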 (primary screen)
Cell system: HCT116 human colon cancer cells
Reagents: siRNA pool against human genes, 50 nM siRNA
Read-out: 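After 50 nM siRNA pool, branched-DNA assay measures six marker transcripts per well, minus blank, normalised to the geometric mean of two housekeeping transcripts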
Reading the numbers: BNIP3L mRNA: higher = more BNIP3L transcript after knockdown; NDRG1 mRNA: higher = more NDRG1 transcript after knockdown

Silencing of GABBR2 (gamma-aminobutyric acid type B receptor subunit 2) resulted in: BNIP3L mRNA, set 1 = 0.208; NDRG1 mRNA, set 1 = 0.259.
CD1E (CD1e molecule) scored BNIP3L mRNA, set 1 = 0.0455; NDRG1 mRNA, set 1 = 0.174.
VPREB1 (V-set pre-B cell surrogate light chain 1) showed BNIP3L mRNA, set 1 = 0.055; NDRG1 mRNA, set 1 = 0.348.
APBB1IP showed BNIP3L mRNA, set 1 = 0.264; NDRG1 mRNA, set 1 = 0.16.
SERPINB7 (serpin family B member 7) scored BNIP3L mRNA, set 1 = 0.0643; NDRG1 mRNA, set 1 = 0.198.
Against KRABD3 (KRAB domain containing 3) the deposit lists BNIP3L mRNA, set 1 = 0.187; NDRG1 mRNA, set 1 = 0.349.
Against B3GALT5 (beta-1,3-galactosyltransferase 5) the deposit lists BNIP3L mRNA, set 1 = 0.27; NDRG1 mRNA, set 1 = 0.181.
After knock-down of GPR39 (G protein-coupled receptor 39) the results were BNIP3L mRNA, set 1 = 0.0898; NDRG1 mRNA, set 1 = 0.142.
For PCGF1 (polycomb group ring finger 1), the values are BNIP3L mRNA, set 1 = 0.106; NDRG1 mRNA, set 1 = 0.167.
For SSBP2 (single stranded DNA binding protein 2), the entry reads BNIP3L mRNA, set 1 = 0.121; NDRG1 mRNA, set 1 = 0.148.
Against MMP23B (matrix metallopeptidase 23B), the values are BNIP3L mRNA, set 1 = 0.122; NDRG1 mRNA, set 1 = 0.138.
CEACAM1 (CEA cell adhesion molecule 1) scored BNIP3L mRNA, set 1 = 0.136; NDRG1 mRNA, set 1 = 0.184.
Knock-down of GATAD1 (GATA zinc finger domain containing 1) gave: BNIP3L mRNA, set 1 = 0.122; NDRG1 mRNA, set 1 = 0.106.
Against CLIC2 (CLIC family member 2), the values are BNIP3L mRNA, set 1 = 0.0948; NDRG1 mRNA, set 1 = 0.234.
GPR37L1 (G protein-coupled receptor 37 like 1) scored BNIP3L mRNA, set 1 = 0.0866; NDRG1 mRNA, set 1 = 0.291.
GPRC6A (G protein-coupled receptor class C group 6 member A) scored BNIP3L mRNA, set 1 = 0.0848; NDRG1 mRNA, set 1 = 0.416.
Against PGAP2 (post-GPI attachment to proteins 2), the entry reads BNIP3L mRNA, set 1 = 0.0846; NDRG1 mRNA, set 1 = 0.314.
Silencing of FGD6 (FYVE, RhoGEF and PH domain containing 6) resulted in: BNIP3L mRNA, set 1 = 0.116; NDRG1 mRNA, set 1 = 0.215.

Sorted by “NDRG1 mRNA, set 1” (low to high): 3 of the entries above
APBB1IP: BNIP3L mRNA, set 1 = 0.264; NDRG1 mRNA, set 1 = 0.16
SERPINB7 (serpin family B member 7): BNIP3L mRNA, set 1 = 0.0643; NDRG1 mRNA, set 1 = 0.198
VPREB1 (V-set pre-B cell surrogate light chain 1): BNIP3L mRNA, set 1 = 0.055; NDRG1 mRNA, set 1 = 0.348

Further entries follow.
Against CAPZB (capping actin protein of muscle Z-line subunit beta), the entry reads BNIP3L mRNA, set 1 = 0.0926; NDRG1 mRNA, set 1 = 0.0862.
Against BICRAL (BICRA like chromatin remodeling complex associated protein), the values are BNIP3L mRNA, set 1 = 0.131; NDRG1 mRNA, set 1 = 0.184.
MRC2 (mannose receptor C-type 2) showed BNIP3L mRNA, set 1 = 0.143; NDRG1 mRNA, set 1 = 0.527.
For PRPSAP2 (phosphoribosyl pyrophosphate synthetase associated protein 2) the deposit lists BNIP3L mRNA, set 1 = 0.118; NDRG1 mRNA, set 1 = 0.489.
Silencing of COL14A1 (collagen type XIV alpha 1 chain) came out at: BNIP3L mRNA, set 1 = 0.0736; NDRG1 mRNA, set 1 = 0.206.
SOCS4 (suppressor of cytokine signaling 4) scored BNIP3L mRNA, set 1 = 0.0902; NDRG1 mRNA, set 1 = 0.158.
Against SNX3 (sorting nexin 3), the values are BNIP3L mRNA, set 1 = 0.155; NDRG1 mRNA, set 1 = 0.229.
Knock-down of CPNE6 (copine 6) came out at: BNIP3L mRNA, set 1 = 0.149; NDRG1 mRNA, set 1 = 0.296.
After knock-down of CITED1 (Cbp/p300 interacting transactivator with ED-rich tail 1), the record shows BNIP3L mRNA, set 1 = 0.129; NDRG1 mRNA, set 1 = 0.159.
UTP6 (UTP6 small subunit processome component) showed BNIP3L mRNA, set 1 = 0.0508; NDRG1 mRNA, set 1 = 0.102.
